Publication PMC7362644
These are yes or no findings as the source states them, for the method shown. In cells and extracts the contact can be indirect. Some binding calls cover weakened binding; strength is not graded here.

By UniProt entry, the sequences of proteins in these tests, tags left out. Where a name states a change or a piece, a line headed by the entry shows the natural chain unless it says otherwise. Chains listed by the source or under a name are the forms on record and can include a tag or linker. Residues count along the entry.
UniProt Q6ZWQ0, residues 6343-6767: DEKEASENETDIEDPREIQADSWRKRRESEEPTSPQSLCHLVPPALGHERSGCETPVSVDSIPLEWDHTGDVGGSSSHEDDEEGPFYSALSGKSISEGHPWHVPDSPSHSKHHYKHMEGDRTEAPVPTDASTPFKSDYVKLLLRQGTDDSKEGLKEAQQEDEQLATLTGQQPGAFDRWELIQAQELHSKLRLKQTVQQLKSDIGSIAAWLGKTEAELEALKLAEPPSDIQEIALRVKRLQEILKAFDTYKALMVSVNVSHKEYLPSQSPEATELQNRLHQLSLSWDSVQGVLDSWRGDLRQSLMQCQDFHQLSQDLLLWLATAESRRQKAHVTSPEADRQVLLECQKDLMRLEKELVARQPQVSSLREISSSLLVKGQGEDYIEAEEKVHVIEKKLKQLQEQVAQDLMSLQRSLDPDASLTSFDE
HA-BicD2 WT (Q921C5-2, form named): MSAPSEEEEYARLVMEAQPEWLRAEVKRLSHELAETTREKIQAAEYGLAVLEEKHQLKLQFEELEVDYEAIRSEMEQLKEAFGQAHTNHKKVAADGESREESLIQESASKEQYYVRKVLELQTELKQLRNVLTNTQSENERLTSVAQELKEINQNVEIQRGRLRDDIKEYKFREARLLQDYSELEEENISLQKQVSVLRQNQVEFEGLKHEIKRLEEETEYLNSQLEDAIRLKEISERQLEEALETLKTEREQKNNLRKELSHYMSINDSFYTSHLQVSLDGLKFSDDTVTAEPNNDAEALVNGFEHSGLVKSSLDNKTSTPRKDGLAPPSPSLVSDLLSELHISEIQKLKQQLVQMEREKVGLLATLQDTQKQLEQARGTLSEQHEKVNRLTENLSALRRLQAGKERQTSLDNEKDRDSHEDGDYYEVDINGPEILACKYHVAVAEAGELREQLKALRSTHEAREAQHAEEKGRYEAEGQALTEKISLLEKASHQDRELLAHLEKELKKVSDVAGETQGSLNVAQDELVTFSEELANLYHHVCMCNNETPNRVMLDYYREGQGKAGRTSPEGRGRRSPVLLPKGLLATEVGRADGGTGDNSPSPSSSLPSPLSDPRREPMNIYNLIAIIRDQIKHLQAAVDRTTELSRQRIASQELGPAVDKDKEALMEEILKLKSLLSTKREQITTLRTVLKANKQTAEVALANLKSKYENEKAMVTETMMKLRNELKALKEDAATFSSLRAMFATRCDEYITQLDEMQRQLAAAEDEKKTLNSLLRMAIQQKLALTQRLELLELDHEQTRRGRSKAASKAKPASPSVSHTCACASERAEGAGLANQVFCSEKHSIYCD

Target: GST-tagged Nesprin-2 C-terminus (mouse) (UniProt Q6ZWQ0)
Assay: pull-down; GST-Nesprin-2 C-terminus on glutathione resin incubated overnight at 4 °C with RIPA lysate of HEK293T cells transfected with HA-BicD2 WT or K775X; Western blot with HA antibody; only the target purified

- binding: binds
Substance: HA-BicD2 WT (from UniProt Q921C5-2 1-851)
